These are yes or no findings as the source states them, for the method shown. In cells and extracts the contact can be indirect. Some results given as binding are weak or reduced against the parent protein; the word gives no strength.
Experiments:
[1] = biological target: Growth Factor Receptor Bound Protein 7 (human (endogenous in SK-BR-3)) (UniProt Q14451); test: co-IP; SK-BR-3 cells lysed in co-IP buffer; antibody (anti-GRB7, anti-FAK or anti-Pin1) overnight at 4 °C, protein A/G beads 2 h at 4 °C, Western blot for the other protein; cells with circCDYL2 overexpression or silencing compared with controls
[2] = biological target: Growth Factor Receptor Bound Protein 7 (human (endogenous in SK-BR-3)) (UniProt Q14451); test: co-IP; JIMT-1 cells (Fig. S3H); no further details shown
[3] = biological target: Focal adhesion kinase 1 (human (endogenous in SK-BR-3)) (UniProt Q05397); test: co-IP; SK-BR-3 cells lysed in co-IP buffer; antibody (anti-GRB7, anti-FAK or anti-Pin1) overnight at 4 °C, protein A/G beads 2 h at 4 °C, Western blot for the other protein; cells with circCDYL2 overexpression or silencing compared with controls
[4] = biological target: peptidyl-prolyl cis/trans isomerase Pin1 (human (endogenous in SK-BR-3)) (UniProt Q13526); test: as above
[5] = biological target: Focal adhesion kinase 1 (human (endogenous in SK-BR-3)) (UniProt Q05397); test: co-IP; JIMT-1 cells (Fig. S3H); no further details shown

Sequences of proteins named here, by UniProt entry; tags and fusion partners are left off.
UniProt Q05397: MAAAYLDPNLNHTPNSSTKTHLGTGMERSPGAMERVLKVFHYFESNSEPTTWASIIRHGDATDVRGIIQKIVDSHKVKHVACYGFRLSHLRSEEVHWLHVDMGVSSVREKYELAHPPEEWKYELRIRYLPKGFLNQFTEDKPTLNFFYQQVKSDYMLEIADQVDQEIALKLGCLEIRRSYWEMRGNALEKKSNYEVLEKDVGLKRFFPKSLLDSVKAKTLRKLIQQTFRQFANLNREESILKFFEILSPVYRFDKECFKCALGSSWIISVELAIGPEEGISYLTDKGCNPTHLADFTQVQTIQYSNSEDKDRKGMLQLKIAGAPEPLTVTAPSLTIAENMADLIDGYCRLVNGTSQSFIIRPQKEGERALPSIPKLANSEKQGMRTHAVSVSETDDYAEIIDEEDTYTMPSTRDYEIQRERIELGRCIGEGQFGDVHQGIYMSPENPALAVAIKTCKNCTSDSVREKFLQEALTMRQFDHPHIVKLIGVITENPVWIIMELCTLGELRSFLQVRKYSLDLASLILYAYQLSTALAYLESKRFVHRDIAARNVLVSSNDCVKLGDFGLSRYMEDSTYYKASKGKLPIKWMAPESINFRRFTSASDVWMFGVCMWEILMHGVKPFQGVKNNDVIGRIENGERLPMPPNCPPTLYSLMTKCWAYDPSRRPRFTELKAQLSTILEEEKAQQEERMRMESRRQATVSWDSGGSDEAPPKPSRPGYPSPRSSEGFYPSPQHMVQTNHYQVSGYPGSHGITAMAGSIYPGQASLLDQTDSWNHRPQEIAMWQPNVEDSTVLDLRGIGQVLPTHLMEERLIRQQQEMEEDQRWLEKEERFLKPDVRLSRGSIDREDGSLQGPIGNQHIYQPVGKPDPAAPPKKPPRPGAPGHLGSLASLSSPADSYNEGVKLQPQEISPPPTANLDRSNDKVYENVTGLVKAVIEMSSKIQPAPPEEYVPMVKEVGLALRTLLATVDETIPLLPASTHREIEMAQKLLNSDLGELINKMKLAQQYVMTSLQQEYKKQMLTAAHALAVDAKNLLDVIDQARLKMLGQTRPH
UniProt Q13526: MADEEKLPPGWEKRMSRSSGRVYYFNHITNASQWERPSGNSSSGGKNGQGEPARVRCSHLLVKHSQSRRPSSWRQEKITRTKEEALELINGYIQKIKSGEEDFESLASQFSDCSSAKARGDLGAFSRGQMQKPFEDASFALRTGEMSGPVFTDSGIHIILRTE

Row | binding [1] | binding [2] | binding [3] | binding [4] | binding [5] | Substance
1 | binds | binds | – | – | – | Focal adhesion kinase 1 (from UniProt Q05397 1-1052)
2 | – | – | binds | binds | binds | Growth Factor Receptor Bound Protein 7 (from UniProt Q14451 1-532)
3 | binds | – | – | – | – | peptidyl-prolyl cis/trans isomerase Pin1 (from UniProt Q13526 1-163)
